Laboratory results as given in the supplement of paper PMC6411743.
± gives the standard deviation of the averaged measurements. The list shows a part of the results.

By UniProt entry, the sequences of proteins in these tests, tags left out. Where a name states a change or a piece, a line headed by the entry shows the natural chain unless it says otherwise.
UniProt O00115: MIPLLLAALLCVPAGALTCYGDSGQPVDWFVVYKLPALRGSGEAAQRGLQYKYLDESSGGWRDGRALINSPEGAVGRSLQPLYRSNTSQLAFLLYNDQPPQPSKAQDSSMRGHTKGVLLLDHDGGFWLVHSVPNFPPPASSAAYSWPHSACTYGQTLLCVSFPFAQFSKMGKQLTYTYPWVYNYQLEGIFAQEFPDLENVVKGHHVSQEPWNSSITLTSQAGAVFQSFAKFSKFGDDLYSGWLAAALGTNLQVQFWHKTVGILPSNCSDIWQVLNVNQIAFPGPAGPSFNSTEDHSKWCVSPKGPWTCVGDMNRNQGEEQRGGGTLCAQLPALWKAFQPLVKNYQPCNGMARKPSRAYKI
UniProt O14974: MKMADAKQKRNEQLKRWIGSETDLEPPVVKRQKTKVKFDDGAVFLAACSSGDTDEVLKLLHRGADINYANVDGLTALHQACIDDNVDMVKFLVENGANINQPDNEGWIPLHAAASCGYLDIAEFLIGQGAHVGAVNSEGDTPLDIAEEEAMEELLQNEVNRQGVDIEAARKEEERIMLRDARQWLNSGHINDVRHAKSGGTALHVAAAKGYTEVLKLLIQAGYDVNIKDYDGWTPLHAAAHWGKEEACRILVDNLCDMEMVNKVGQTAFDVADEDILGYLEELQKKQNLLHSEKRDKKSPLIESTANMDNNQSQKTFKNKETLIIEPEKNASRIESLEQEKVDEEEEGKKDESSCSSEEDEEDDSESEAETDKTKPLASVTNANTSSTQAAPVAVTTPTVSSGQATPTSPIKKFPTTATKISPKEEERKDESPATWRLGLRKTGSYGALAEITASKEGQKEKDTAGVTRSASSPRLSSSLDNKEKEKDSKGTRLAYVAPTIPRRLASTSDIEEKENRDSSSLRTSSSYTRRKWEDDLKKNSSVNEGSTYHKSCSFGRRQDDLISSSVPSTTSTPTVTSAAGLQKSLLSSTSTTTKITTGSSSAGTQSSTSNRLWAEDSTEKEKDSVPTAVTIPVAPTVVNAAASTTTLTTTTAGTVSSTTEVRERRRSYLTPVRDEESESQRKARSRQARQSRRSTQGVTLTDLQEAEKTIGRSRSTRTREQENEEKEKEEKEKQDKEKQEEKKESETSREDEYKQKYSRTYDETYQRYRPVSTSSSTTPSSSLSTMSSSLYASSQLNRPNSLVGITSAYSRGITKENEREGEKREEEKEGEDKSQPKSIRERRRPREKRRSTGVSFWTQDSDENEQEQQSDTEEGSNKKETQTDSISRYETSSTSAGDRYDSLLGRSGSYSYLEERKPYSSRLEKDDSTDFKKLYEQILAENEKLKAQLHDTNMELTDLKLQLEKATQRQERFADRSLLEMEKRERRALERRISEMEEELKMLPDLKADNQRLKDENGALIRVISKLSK
UniProt O15228: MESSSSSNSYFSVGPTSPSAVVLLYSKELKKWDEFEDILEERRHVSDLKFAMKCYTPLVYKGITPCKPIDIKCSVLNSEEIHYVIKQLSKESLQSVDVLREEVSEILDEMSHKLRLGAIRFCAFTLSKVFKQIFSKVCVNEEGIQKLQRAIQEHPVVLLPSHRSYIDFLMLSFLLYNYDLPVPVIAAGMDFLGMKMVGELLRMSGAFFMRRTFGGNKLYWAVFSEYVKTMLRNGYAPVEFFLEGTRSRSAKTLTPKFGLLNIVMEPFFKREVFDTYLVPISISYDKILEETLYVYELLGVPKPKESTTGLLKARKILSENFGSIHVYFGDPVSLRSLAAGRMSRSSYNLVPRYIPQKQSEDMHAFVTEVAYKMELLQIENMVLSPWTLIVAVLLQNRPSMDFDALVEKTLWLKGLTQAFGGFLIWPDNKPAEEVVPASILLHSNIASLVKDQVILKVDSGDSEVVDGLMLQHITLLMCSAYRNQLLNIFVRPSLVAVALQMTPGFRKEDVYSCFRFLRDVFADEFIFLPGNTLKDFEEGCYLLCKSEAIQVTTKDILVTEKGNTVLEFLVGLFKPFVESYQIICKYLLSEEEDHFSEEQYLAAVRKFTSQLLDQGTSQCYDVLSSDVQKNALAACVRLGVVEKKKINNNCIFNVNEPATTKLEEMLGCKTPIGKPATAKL
UniProt O15056: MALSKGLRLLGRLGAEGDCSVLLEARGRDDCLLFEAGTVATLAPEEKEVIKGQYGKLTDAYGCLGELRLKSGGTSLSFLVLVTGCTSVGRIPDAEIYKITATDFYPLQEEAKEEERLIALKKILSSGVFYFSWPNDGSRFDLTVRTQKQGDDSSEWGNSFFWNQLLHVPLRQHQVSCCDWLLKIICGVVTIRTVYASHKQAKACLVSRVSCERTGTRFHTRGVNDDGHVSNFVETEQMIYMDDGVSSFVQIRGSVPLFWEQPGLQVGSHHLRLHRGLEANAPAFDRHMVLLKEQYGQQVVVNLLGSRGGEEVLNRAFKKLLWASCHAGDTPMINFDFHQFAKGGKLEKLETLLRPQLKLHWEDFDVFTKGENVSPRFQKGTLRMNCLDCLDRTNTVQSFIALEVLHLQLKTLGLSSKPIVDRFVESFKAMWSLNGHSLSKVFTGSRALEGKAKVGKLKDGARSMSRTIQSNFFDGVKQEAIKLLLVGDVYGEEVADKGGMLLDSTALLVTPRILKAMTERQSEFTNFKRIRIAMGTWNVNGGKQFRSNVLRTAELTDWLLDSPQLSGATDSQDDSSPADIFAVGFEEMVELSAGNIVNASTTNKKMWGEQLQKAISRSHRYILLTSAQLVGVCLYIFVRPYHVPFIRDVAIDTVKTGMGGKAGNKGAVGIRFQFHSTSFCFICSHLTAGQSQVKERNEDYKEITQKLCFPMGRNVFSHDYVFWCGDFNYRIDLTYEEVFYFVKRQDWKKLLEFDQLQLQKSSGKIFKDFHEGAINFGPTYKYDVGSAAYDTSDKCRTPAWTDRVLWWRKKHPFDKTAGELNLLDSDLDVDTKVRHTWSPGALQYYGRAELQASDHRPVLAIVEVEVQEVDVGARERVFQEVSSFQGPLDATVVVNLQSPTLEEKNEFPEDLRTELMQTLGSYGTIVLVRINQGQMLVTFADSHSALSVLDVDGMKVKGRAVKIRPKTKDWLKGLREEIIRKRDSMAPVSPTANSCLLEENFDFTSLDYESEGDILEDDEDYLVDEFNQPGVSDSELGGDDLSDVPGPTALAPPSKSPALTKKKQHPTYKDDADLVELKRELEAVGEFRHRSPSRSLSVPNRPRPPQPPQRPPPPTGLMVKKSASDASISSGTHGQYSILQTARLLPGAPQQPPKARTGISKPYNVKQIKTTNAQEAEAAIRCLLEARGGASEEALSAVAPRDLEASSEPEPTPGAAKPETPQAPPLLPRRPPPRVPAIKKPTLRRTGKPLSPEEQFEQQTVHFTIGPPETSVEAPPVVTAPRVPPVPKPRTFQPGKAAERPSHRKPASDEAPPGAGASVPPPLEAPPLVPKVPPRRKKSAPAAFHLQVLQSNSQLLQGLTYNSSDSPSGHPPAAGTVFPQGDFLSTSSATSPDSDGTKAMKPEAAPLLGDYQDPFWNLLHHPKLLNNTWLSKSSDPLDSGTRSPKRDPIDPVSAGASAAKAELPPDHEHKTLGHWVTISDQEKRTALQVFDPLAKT
UniProt O00499: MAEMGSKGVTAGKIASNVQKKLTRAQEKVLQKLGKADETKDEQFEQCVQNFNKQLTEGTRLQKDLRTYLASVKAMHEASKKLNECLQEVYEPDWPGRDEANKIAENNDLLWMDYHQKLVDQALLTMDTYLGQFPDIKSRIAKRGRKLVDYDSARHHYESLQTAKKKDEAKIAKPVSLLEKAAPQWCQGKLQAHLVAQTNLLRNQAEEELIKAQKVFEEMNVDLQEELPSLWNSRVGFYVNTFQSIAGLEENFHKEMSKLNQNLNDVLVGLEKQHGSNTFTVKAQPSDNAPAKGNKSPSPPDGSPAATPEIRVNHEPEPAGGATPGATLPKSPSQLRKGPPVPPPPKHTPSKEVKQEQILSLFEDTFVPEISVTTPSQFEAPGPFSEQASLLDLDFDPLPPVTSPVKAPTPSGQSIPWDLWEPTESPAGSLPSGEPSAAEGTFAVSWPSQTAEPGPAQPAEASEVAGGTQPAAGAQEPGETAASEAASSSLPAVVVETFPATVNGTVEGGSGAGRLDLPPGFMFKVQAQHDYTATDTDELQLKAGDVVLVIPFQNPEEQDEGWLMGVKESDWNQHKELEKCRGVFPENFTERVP
UniProt O43447: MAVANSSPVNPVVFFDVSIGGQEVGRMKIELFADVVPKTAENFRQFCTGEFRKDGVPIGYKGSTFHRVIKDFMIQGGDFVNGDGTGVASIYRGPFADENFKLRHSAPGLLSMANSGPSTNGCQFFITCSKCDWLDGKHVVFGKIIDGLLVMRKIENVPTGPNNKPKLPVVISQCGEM
UniProt Q92945: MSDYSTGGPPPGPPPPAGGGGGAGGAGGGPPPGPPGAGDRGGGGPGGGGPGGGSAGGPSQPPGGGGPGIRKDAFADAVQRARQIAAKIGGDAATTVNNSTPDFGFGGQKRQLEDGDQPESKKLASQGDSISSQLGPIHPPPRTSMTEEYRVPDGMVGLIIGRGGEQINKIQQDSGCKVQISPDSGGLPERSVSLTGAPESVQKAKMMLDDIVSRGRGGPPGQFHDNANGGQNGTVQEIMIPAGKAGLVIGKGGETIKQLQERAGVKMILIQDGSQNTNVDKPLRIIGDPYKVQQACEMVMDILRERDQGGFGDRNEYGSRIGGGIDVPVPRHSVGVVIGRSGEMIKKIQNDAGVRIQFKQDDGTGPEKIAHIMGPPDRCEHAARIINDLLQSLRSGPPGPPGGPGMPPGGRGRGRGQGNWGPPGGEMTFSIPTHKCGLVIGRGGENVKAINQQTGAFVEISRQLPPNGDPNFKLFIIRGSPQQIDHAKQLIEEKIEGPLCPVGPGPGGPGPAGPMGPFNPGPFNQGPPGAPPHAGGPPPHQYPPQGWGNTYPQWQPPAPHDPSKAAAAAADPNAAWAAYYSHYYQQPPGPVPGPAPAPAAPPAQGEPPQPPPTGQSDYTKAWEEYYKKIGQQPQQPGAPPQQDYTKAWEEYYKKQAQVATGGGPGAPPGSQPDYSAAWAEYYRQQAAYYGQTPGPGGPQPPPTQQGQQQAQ
UniProt O15355: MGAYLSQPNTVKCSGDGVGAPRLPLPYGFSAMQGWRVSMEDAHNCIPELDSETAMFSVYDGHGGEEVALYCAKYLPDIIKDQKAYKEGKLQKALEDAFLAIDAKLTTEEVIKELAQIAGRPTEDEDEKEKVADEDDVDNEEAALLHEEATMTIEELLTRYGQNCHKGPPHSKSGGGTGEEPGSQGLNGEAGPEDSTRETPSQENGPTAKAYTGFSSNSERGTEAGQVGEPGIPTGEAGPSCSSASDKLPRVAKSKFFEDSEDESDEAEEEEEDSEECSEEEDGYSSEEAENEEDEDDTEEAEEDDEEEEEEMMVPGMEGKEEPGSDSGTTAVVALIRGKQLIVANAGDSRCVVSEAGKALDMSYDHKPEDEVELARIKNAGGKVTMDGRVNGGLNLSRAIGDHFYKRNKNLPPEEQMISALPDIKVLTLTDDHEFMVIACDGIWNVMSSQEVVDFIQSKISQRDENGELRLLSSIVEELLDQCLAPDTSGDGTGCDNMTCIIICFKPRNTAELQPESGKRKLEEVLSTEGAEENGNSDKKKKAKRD
UniProt O00483, whole entry: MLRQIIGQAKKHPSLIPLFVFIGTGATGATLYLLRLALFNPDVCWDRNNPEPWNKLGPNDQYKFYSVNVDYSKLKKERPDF
UniProt O14949: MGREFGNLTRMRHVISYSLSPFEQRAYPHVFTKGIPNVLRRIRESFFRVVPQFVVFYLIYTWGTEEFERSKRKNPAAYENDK
UniProt O15066: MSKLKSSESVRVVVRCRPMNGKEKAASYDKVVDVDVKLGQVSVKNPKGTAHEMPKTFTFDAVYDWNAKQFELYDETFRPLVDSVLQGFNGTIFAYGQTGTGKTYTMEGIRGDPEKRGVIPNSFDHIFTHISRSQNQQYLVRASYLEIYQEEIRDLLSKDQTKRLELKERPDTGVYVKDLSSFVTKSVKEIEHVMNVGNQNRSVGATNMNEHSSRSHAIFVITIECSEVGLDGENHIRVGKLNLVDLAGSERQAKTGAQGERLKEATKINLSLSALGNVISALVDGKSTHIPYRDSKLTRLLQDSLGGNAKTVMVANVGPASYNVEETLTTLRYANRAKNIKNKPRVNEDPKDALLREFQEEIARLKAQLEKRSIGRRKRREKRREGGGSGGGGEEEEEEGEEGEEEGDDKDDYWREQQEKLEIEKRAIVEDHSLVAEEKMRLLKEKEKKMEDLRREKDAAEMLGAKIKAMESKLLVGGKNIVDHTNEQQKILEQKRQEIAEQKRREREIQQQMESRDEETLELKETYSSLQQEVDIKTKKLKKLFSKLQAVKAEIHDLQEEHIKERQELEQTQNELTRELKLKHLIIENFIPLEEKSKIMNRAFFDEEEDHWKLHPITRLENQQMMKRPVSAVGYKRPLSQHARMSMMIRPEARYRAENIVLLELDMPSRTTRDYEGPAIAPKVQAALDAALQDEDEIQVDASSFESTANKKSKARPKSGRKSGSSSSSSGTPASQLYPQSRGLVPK

Compound: Nc1nc2c(ncn2[C@@H]2O[C@H](COP(=O)(O)OP(=O)(O)OP(=O)(O)O)[C@@H](O)[C@H]2O)c(=O)[nH]1 [guanosine triphosphate]
Assay: NP40-soluble protein abundance relative to vehicle (solubility fold change) (ratio); higher = more soluble protein in presence of GTP
In short: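 Jurkat crude lysate prepared with a Dounce homogeniser was treated at eight concentrations spanning 0.1 to 10 mM, 10 min at room temperature then 3 min at 37 °C. Solubilisation with 0.8% NP40 and benzonase and ultracentrifugation preceded TMT labelling of the supernatant for LC-MS/MS. Fold change against the detergent-processed vehicle was determined per replicate from vsn-normalised intensities, across three independent experiments.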

Target	NP40-soluble protein abundance (concentration: 0.1mM)	NP40-soluble protein abundance (concentration: 0.5mM)	NP40-soluble protein abundance (concentration: 1mM)	NP40-soluble protein abundance (concentration: 2mM)	NP40-soluble protein abundance (concentration: 4mM)	NP40-soluble protein abundance (concentration: 6mM)	NP40-soluble protein abundance (concentration: 8mM)	NP40-soluble protein abundance (concentration: 10mM)
UniProt O43237 and related entries	0.9716 ± 0.0075	1.03 ± 0.021	1.01 ± 0.028	1.09 ± 0.073	1.07 ± 0.12	1.07 ± 0.085	1.11 ± 0.14	1.15 ± 0.14
AKR7A2 (UniProt O43488)	0.9941 ± 0.0061	0.973 ± 0.021	0.916 ± 0.027	0.872 ± 0.065	0.883 ± 0.033	0.872 ± 0.049	0.886 ± 0.029	0.859 ± 0.099
UniProt O00115 and related entries	0.912 ± 0.1	0.868 ± 0.11	0.884 ± 0.13	0.85 ± 0.15	0.846 ± 0.12	0.877 ± 0.15	0.871 ± 0.12	0.845 ± 0.13
UniProt O14974 and related entries	0.964 ± 0.044	1 ± 0.041	1.03 ± 0.066	1.01 ± 0.085	0.999 ± 0.069	1.05 ± 0.071	1.1 ± 0.08	1.11 ± 0.1
DKC1 (UniProt O60832)	1.08 ± 0.11	1.01 ± 0.069	1.11 ± 0.11	1.15 ± 0.078	1.22 ± 0.09	1.36 ± 0.13	1.48 ± 0.18	1.65 ± 0.21
NDUFB3 (UniProt O43676)	0.983 ± 0.023	1.03 ± 0.039	1.02 ± 0.03	0.998 ± 0.09	1.01 ± 0.038	1.03 ± 0.068	1.04 ± 0.12	1.04 ± 0.12
PHGDH (UniProt O43175)	0.956 ± 0.028	0.947 ± 0.014	0.948 ± 0.026	0.895 ± 0.025	0.904 ± 0.035	0.891 ± 0.022	0.907 ± 0.014	0.879 ± 0.026
GNPAT (UniProt O15228)	1.06 ± 0.078	1.05 ± 0.081	0.948 ± 0.03	0.942 ± 0.098	0.913 ± 0.092	0.904 ± 0.061	0.889 ± 0.045	0.819 ± 0.096
SYNJ2 (UniProt O15056)	1.06 ± 0.11	1.02 ± 0.061	1.03 ± 0.047	1.02 ± 0.068	1.03 ± 0.043	0.993 ± 0.035	0.986 ± 0.088	0.931 ± 0.041
UniProt O00499 and related entries	0.808 ± 0.12	0.793 ± 0.097	0.824 ± 0.13	0.789 ± 0.11	0.798 ± 0.12	0.767 ± 0.097	0.771 ± 0.082	0.8 ± 0.13
PPIH (UniProt O43447)	0.955 ± 0.012	0.993 ± 0.024	0.938 ± 0.014	0.943 ± 0.023	0.941 ± 0.012	0.933 ± 0.04	0.926 ± 0.011	0.959 ± 0.038
M0R1D2 and related entries (UniProt O60234)	0.954 ± 0.063	0.917 ± 0.046	0.977 ± 0.066	0.926 ± 0.083	0.917 ± 0.084	0.932 ± 0.084	0.905 ± 0.082	0.89 ± 0.093
M0R263 and related entries (UniProt Q92945)	0.914 ± 0.043	0.909 ± 0.082	0.963 ± 0.079	0.914 ± 0.1	0.912 ± 0.096	0.919 ± 0.098	0.925 ± 0.078	0.936 ± 0.075
M0R2S1 and related entries (UniProt P62987)	0.88 ± 0.084	0.895 ± 0.11	1.01 ± 0.17	0.915 ± 0.11	0.89 ± 0.089	0.886 ± 0.068	0.867 ± 0.12	0.941 ± 0.11
M0QZR4 (UniProt Q92888)	0.985 ± 0.044	0.989 ± 0.041	0.97 ± 0.059	0.957 ± 0.056	0.967 ± 0.035	0.951 ± 0.039	0.967 ± 0.043	0.945 ± 0.03
PPM1G (UniProt O15355)	0.918 ± 0.088	0.911 ± 0.094	0.959 ± 0.097	0.888 ± 0.12	0.898 ± 0.12	0.894 ± 0.12	0.927 ± 0.089	0.923 ± 0.1
NDUFA4 (UniProt O00483)	0.934 ± 0.11	0.901 ± 0.071	0.943 ± 0.08	0.92 ± 0.1	0.906 ± 0.14	0.909 ± 0.091	0.833 ± 0.095	0.891 ± 0.14
UQCRQ (UniProt O14949)	0.965 ± 0.068	0.883 ± 0.034	1.06 ± 0.084	1.04 ± 0.094	1.07 ± 0.085	1.01 ± 0.076	0.911 ± 0.05	1.04 ± 0.14
UniProt O00522 and related entries	1.13 ± 0.045	1.14 ± 0.086	1.11 ± 0.025	1.08 ± 0.044	1.1 ± 0.061	1.009 ± 0.002	1.05 ± 0.087	1.02 ± 0.057
UniProt O14818 and related entries	0.972 ± 0.015	1.03 ± 0.028	1.02 ± 0.075	1.03 ± 0.12	1.05 ± 0.13	1.09 ± 0.14	1.06 ± 0.14	1.03 ± 0.15
UniProt O43709	1.03 ± 0.038	1.06 ± 0.042	1.07 ± 0.025	1.03 ± 0.053	1.07 ± 0.052	1.09 ± 0.043	1.16 ± 0.085	1.12 ± 0.03
KIF3B (UniProt O15066)	1.07 ± 0.033	1.02 ± 0.032	1.08 ± 0.045	0.996 ± 0.082	1.04 ± 0.067	1.01 ± 0.025	1.06 ± 0.081	1.05 ± 0.078
PRPF3 (UniProt O43395)	1.06 ± 0.052	1.09 ± 0.081	1.09 ± 0.09	1.12 ± 0.09	1.15 ± 0.12	1.19 ± 0.12	1.22 ± 0.16	1.27 ± 0.18
M0QXB4 and related entries (UniProt O14579)	1.01 ± 0.049	0.968 ± 0.04	1.07 ± 0.075	1.05 ± 0.055	1.09 ± 0.081	1.02 ± 0.059	1.04 ± 0.056	1.02 ± 0.038
EEF1E1 (UniProt O43324)	1.05 ± 0.28	0.987 ± 0.27	1.24 ± 0.41	1.43 ± 0.46	1.41 ± 0.44	1.39 ± 0.45	1.22 ± 0.39	1.31 ± 0.55
UniProt O15400 and related entries	0.854 ± 0.013	0.806 ± 0.034	0.908 ± 0.02	0.901 ± 0.049	0.907 ± 0.062	0.962 ± 0.093	0.898 ± 0.14	1.02 ± 0.028
NPC1 (UniProt O15118)	0.955 ± 0.061	0.94 ± 0.04	0.956 ± 0.026	0.966 ± 0.041	0.946 ± 0.044	0.964 ± 0.055	0.916 ± 0.064	1.01 ± 0.055
YKT6 (UniProt O15498)	0.907 ± 0.085	0.938 ± 0.077	0.876 ± 0.064	0.86 ± 0.036	0.839 ± 0.048	0.853 ± 0.067	0.82 ± 0.078	0.814 ± 0.078
M0R0P8 and related entries (UniProt Q13459)	1.05 ± 0.03	1.01 ± 0.048	1.04 ± 0.055	1.02 ± 0.032	1.01 ± 0.028	0.991 ± 0.089	1.03 ± 0.014	0.973 ± 0.035
MAFG (UniProt O15525)	0.92 ± 0.12	0.905 ± 0.035	1.04 ± 0.11	1 ± 0.15	1.05 ± 0.1	0.988 ± 0.053	0.973 ± 0.065	1.11 ± 0.096

Full records, quoted from the list.
M0R2S1 and related entries (UniProt P62987) in the list: NP40-soluble protein abundance (concentration: 0.1mM): 0.88 ± 0.084; NP40-soluble protein abundance (concentration: 0.5mM): 0.895 ± 0.11; NP40-soluble protein abundance (concentration: 1mM): 1.01 ± 0.17; NP40-soluble protein abundance (concentration: 2mM): 0.915 ± 0.11; NP40-soluble protein abundance (concentration: 4mM): 0.89 ± 0.089; NP40-soluble protein abundance (concentration: 6mM): 0.886 ± 0.068; NP40-soluble protein abundance (concentration: 8mM): 0.867 ± 0.12; NP40-soluble protein abundance (concentration: 10mM): 0.941 ± 0.11
NDUFB3 (UniProt O43676) in the list: NP40-soluble protein abundance (concentration: 0.1mM): 0.983 ± 0.023; NP40-soluble protein abundance (concentration: 0.5mM): 1.03 ± 0.039; NP40-soluble protein abundance (concentration: 1mM): 1.02 ± 0.03; NP40-soluble protein abundance (concentration: 2mM): 0.998 ± 0.09; NP40-soluble protein abundance (concentration: 4mM): 1.01 ± 0.038; NP40-soluble protein abundance (concentration: 6mM): 1.03 ± 0.068; NP40-soluble protein abundance (concentration: 8mM): 1.04 ± 0.12; NP40-soluble protein abundance (concentration: 10mM): 1.04 ± 0.12
